# Experimental data: patent US20250340626A1 (INTERVET, published 2025)
# Numbering of substitutions follows the chain as printed. Results are given in words; binding and its absence hold for the method and conditions named. Some results given as binding are weak or reduced against the parent protein; the word gives no strength.
# B1: cFulVH2L1 (antibody, V domains shown)
# VH: EVQLVESGGDLVKPGGSLRLSCVASGFTLRSYSMNWIRQAPGKGLQWVSYISRSSHTIFYADSVKGRFTISRDNAKNTLYLQMDSLRDEDTAVYYCARVYSSGWHVSDYFDYWGQGILVTVSS
# VL: EIVMTQSPASLSLSQEEKVTITCRASQGISSALAWYQQKPGQAPKLLIYDASSLESGVPSRFSGSGSGTDFSFTISSLEPEDVAVYYCQQFNSYPLTFGQGTKVEIKR
# B2: cFulVH1L1 (antibody, V domains shown)
# VH: B1 VH with L29F, R30S, D84N, I117T
# VL: B1 VL
# B3: human-canine chimeric Fulranumab (antibody, V domains shown)
# VH: B1 VH with D10G, K13Q, V23A, I37V, Q46E, T78S, V93M
# VL: AIQLTQSPSSLSASVGDRVTITCRASQGISSALAWYQQKPGKAPKLLIYDASSLESGVPSRFSGSGSGTDFTLTISSLQPEDFATYYCQQFNSYPLTFGGGTKVEIKR
# notes: Human VH/VL of fulranumab fused to canine IgG-B constant regions and canine kappa constant region; expressed in HEK293, Protein A purified; also called Ful Chimeric; Ful Chim
# B4: cFulVH1L2 (antibody, V domains shown)
# VH: B1 VH with L29F, R30S, D84N, I117T
# VL: B1 VL with V3Q, M4L, F73L, V83F, Q100G
# B5: cFulVH2L2 (antibody, V domains shown)
# VH: B1 VH
# VL: B1 VL with V3Q, M4L, F73L, V83F, Q100G
# B6: human-canine chimeric Fasinumab (antibody, V domains shown)
# VH: QVQLVQSGAEVKKPGASVKVSCKVSGFTLTELSIHWVRQAPGKGLEWMGGFDPEDGETIYAQKFQGRVTMTEDTSTDTAYMELTSLRSEDTAVYYCSTIGVVTNFDNWGQGTLVTVSS
# VL: DIQMTQSPSSLSASAGDRVTITCRASQAIRNDLGWYQQKPGKAPKRLIYAAFNLQSGVPSRFSGSGSGTEFTLTISSLQPEDLASYYCQQYNRYPWTFGQGTKVEIKR
# notes: Human VH/VL of fasinumab fused to canine IgG-B constant regions and canine kappa constant region; also called Fas Chimeric; Fas Chim
# Target: canine NGF (canine)
# Assay: ELISA, canine NGF coated
row,binding,Binder
1,binds,B1
2,binds,B2
3,binds,B4
4,binds,B5

row,Binder,binding
1,B3,binds
2,B6,binds
